Results are given in words; binding and its absence hold for the method and conditions named. In cells and extracts the contact can be indirect. Some binding calls cover weakened binding; strength is not graded here. For some assays here: Tags and fused reporters may be left off the sequences shown. Each block holds one binder with its values, some of them ahead of it.
How the values were obtained:
[1] = target: BCL2 (endogenous) (human (endogenous in HL60, THP-1, NB4, U937 and primary AML cells)), P10415; assay: pull-down; conditions: remark: other sources report otherwise
[2] = target: BCL2-mCherry (human), P10415; assay: pull-down; conditions: remark: other sources report otherwise
MCL1-mCherry (human) = MCL1-mCherry (human) (UniProt Q07820); assay: pull-down
[3] = target: BAX (endogenous) (human (endogenous in HL60, THP-1, NB4, U937, PC9 and primary AML cells)), Q07812; assay: co-IP; conditions: remark: other sources report otherwise

Sequences of proteins named here, by UniProt entry; tags and fusion partners are left off.
UniProt Q07820: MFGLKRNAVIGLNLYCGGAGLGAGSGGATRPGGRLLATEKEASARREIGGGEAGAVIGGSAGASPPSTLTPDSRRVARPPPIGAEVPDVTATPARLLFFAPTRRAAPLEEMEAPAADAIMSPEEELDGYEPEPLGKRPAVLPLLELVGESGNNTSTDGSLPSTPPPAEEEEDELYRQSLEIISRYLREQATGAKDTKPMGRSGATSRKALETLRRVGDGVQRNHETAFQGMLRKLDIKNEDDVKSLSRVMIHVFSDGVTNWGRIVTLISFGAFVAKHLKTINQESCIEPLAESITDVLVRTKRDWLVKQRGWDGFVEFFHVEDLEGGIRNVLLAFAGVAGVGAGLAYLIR

binding [1]: binds | binding [2]: binds
B1: BAD-eGFP, Q92934 1-168 (protein)
chain: MFQIPEFEPSEQEDSSSAERGLGPSPAGDGPSGSGKHHRQAPGLLWDASHQQEQPTSSSHHGGAGAVEIRSRHSSYPAGTEDDEGMGEEPSPFRGRSRSAPPNLWAAQRYGRELRRMSDEFVDSFKKGLPRPKSAGTATQMRQSSSWTRVFQSWWDRNLGRGSSAPSQ

binding (MCL1-mCherry (human)): no binding
B2: BAD-eGFP (protein, UniProt Q92934 1-168)
chain: MFQIPEFEPSEQEDSSSAERGLGPSPAGDGPSGSGKHHRQAPGLLWDASHQQEQPTSSSHHGGAGAVEIRSRHSSYPAGTEDDEGMGEEPSPFRGRSRSAPPNLWAAQRYGRELRRMSDEFVDSFKKGLPRPKSAGTATQMRQSSSWTRVFQSWWDRNLGRGSSAPSQ

binding [2]: no binding
B3: NOXA-eGFP, Q13794 1-54 (protein)
chain: MPGKKARKNAQPSPARAPAELEVECATQLRRFGDKLNFRQKLLNLISKLFCSGT

binding [3]: binds
B4: BAK (endogenous), Q16611 1-211 (protein)
chain: MASGQGPGPPRQECGEPALPSASEEQVAQDTEEVFRSYVFYRHQQEQEAEGVAAPADPEMVTLPLQPSSTMGQVGRQLAIIGDDINRRYDSEFQTMLQHLQPTAENAYEYFTKIATSLFESGINWGRVVALLGFGYRLALHVYQHGLTGFLGQVTRFVVDFMLHHCIARWIAQRGGWVAALNLGNGPILNVLVVLGVVLLGQFVVRRFFKS

Reference: article doi:10.1101/2023.01.16.524337
